Results published in article PMC7862700.
Only a part is listed here, and it is no random draw. At the low end of the ranking the order means little.

The chains behind the UniProt entries cited, without tags or fusion partners. Where a name states a change or a piece, a line headed by the entry shows the natural chain unless it says otherwise.
UniProt P41212: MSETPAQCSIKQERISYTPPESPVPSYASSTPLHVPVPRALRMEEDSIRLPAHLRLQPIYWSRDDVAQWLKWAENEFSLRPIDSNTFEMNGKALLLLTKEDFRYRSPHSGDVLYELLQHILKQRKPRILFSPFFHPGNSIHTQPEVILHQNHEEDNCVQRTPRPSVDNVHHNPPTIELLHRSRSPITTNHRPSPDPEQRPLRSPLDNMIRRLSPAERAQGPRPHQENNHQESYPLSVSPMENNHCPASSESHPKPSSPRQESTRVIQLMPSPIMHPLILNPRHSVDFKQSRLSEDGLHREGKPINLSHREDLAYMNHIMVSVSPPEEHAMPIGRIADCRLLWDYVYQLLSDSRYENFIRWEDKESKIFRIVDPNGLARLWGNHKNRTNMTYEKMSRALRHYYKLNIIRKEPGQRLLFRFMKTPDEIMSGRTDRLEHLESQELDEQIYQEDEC

What follows are sequences tested against ETV6 (UniProt P41212) (assay: DAPPL (digital affinity profiling via proximity ligation, sequencing)). Settings: 10 mM Tris-HCl pH 7.5, 50 mM NaCl, 1 mM DTT, 4% glycerol, room temperature, 30 min; GST-TFs on glutathione beads, 16-mer random dsDNA library, 0.1% …; high values mean tight binding; double strand, one strand shown; scale: fold enrichment (6-mer frequency, TF over GST control).

Row | Sequence | binding signal
1 | CGCCCC | 1.19
2 | GTACAC | 1.29
3 | TGTCAT | 1.11
4 | TGCATG | 1.08
5 | TGCGTT | 0.969
6 | ATTCGA | 1.23
7 | AAGCAA | 1.02
8 | TCTAAC | 1.22
9 | CCTTAG | 1.23
10 | ATTGTA | 1.27
11 | CAAGCC | 0.943
12 | CGATGG | 1.33
13 | TATCTT | 1.18
14 | TTTGTC | 1.17
15 | TCTATG | 0.909
16 | TACAGG | 1.19
17 | ATGGTC | 1.52
18 | CCACCC | 1.24
19 | TGTTGA | 1.01
20 | GAAAAT | 1.19

Given with tabs: entries from further up
Row	Sequence	binding signal
12	CGATGG	1.33
13	TATCTT	1.18
14	TTTGTC	1.17
15	TCTATG	0.909
16	TACAGG	1.19
17	ATGGTC	1.52
18	CCACCC	1.24
19	TGTTGA	1.01
20	GAAAAT	1.19

(next part)

Row | Sequence | binding signal
21 | GCTGCG | 0.96
22 | AGATCT | 0.882
23 | CTCGCT | 1.64
24 | GTTTGC | 1.02
25 | CCAAGC | 0.943
26 | ACTGAC | 1.19
27 | AAAACC | 1.19
28 | GCGAAT | 0.98
29 | CGCTTA | 1.11
30 | ACTGCA | 1.2
31 | CTAGCA | 1.18
32 | CCAGAA | 0.964
33 | CCTCCA | 1.29
34 | AAGCGC | 1.15
35 | AGCTCA | 1.1
36 | GCCTGC | 1.05
37 | AAAGCT | 1.09
38 | CGACCA | 1.33
39 | AAAGCA | 1.05
